# The list shows a part of the results.
# B1: OS9 (Arabidopsis thaliana) (protein)
# chain: MRGSHHHHHHGMASMTGGQQMGRDLYDDDDKSRLQIFPAHLVGTFSRNNREPKYKIEFLPEDSPFHPGDNLESMVMLDKHGNRFLCYLPKEEKATSGWTSSQQNISTVMMETQQLVKLKTPDELLQPLSEKCLFRQEGWWSYEFCHQKYVRQLHVEDENKIVQEFFLGTFDPEATAAFNQTVSDASTDASQRYHSHVYTNGTTCDLTGSPAEVEVRFVCAETRAMVTSITELSTCKYALTVQCPTLCKHPLFQLEKPVSHTIHCNAIPVEEDATRNKEEQAVDESPKMIADS
# Assays:
# Assay in all cases: glycan array binding signal (z-score within array); higher = stronger binding
# Details in all cases: glycan notation: IUPAC condensed, linker removed; mutation: R201A
# [1] = biological target: Gal(b1-3)GlcNAc(b1-2)Man(a1-3)[Gal(b1-3)GlcNAc(b1-2)Man(a1-6)]Man(b1-4)GlcNAc(b1-4)GlcNAc
# Summary of the method: (§1)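 From the Consortium for Functional Glycomics database, 3228 arrays were curated, keeping only those whose protein sequence was available. Binding is given as a within-array Z-score averaged across arrays sharing a protein sequence and across linkers. Negative Z-scores can be read as non-binding.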
# [2] = biological target: Gal(b1-3)GlcNAc(b1-2)Man(a1-3)[Gal(b1-3)GlcNAc(b1-2)Man(a1-6)]Man(b1-4)GlcNAc(b1-4)[Fuc(a1-6)]GlcNAc
# Summary of the method: as §1
# [3] = biological target: Gal(b1-3)GlcNAc(b1-2)Man(a1-3)[GlcNAc(b1-4)][Gal(b1-3)GlcNAc(b1-2)Man(a1-6)]Man(b1-4)GlcNAc(b1-4)GlcNAc
# Summary of the method: as §1
# [4] = biological target: Gal(b1-3)GlcNAc(b1-2)[Gal(b1-3)GlcNAc(b1-6)]Man(a1-6)[Gal(b1-3)GlcNAc(b1-2)Man(a1-3)]Man(b1-4)GlcNAc(b1-4)GlcNAc
# Summary of the method: as §1
# [5] = biological target: Gal(b1-3)GlcNAc(b1-3)Gal(b1-3)GlcNAc
# Summary of the method: as §1
# [6] = biological target: Gal(b1-3)GlcNAc(b1-3)Gal(b1-4)Glc
# Summary of the method: as §1
# [7] = biological target: Gal(b1-3)GlcNAc(b1-3)Gal(b1-4)GlcNAc
# Summary of the method: as §1
# [8] = biological target: Gal(b1-3)GlcNAc(b1-3)Gal(b1-4)GlcNAc(b1-2)Man(a1-3)[Gal(b1-3)GlcNAc(b1-3)Gal(b1-4)GlcNAc(b1-2)Man(a1-6)]Man(b1-4)GlcNAc(b1-4)GlcNAc
# Summary of the method: as §1
# [9] = biological target: Gal(b1-3)GlcNAc(b1-3)Gal(b1-4)GlcNAc(b1-2)[Gal(b1-3)GlcNAc(b1-3)Gal(b1-4)GlcNAc(b1-6)]Man(a1-6)[Gal(b1-3)GlcNAc(b1-3)Gal(b1-4)GlcNAc(b1-2)Man(a1-3)]Man(b1-4)GlcNAc(b1-4)[Fuc(a1-6)]GlcNAc
# Summary of the method: as §1
# [10] = biological target: Gal(b1-3)GlcNAc(b1-3)Gal(b1-4)GlcNAc(b1-3)Gal(b1-4)GlcNAc(b1-2)[Gal(b1-3)GlcNAc(b1-3)Gal(b1-4)GlcNAc(b1-3)Gal(b1-4)GlcNAc(b1-6)]Man(a1-6)[Gal(b1-3)GlcNAc(b1-3)Gal(b1-4)GlcNAc(b1-3)Gal(b1-4)GlcNAc(b1-2)Man(a1-3)]Man(b1-4)GlcNAc(b1-4)[Fuc(a1-6)]GlcNAc
# Summary of the method: as §1
# [11] = biological target: Gal(b1-3)GlcNAc(b1-3)Gal(b1-4)GlcNAc(b1-6)[Gal(b1-3)GlcNAc(b1-3)]Gal(b1-4)Glc
# Summary of the method: as §1
# [12] = biological target: Gal(b1-3)GlcNAc(b1-3)Gal(b1-4)[Fuc(a1-3)]GlcNAc
# Summary of the method: as §1
# [13] = biological target: Gal(b1-3)GlcNAc(b1-3)Gal(b1-4)[Fuc(a1-3)]GlcNAc(b1-6)[Gal(b1-3)GlcNAc(b1-3)]Gal(b1-4)Glc
# Summary of the method: as §1
# [14] = biological target: Gal(b1-3)GlcNAc(b1-3)GalNAc
# Summary of the method: as §1
# [15] = biological target: Gal(b1-3)GlcNAc(b1-6)Gal(b1-4)GlcNAc
# Summary of the method: as §1
# [16] = biological target: Gal(b1-3)GlcNAc(b1-6)GalNAc
# Summary of the method: as §1
# [17] = biological target: Gal(b1-3)GlcNAc(b1-6)[Gal(b1-3)]GalNAc
# Summary of the method: as §1
# Gal(b1-3)GlcNAc6S = biological target: Gal(b1-3)GlcNAc6S
# Summary of the method: as §1
# [18] = biological target: Gal(b1-3)[Fuc(a1-4)]GlcNAc
# Summary of the method: as §1
# [19] = biological target: Gal(b1-3)[Fuc(a1-4)]GlcNAc(b1-2)Man
# Summary of the method: as §1
# [20] = biological target: Gal(b1-3)[Fuc(a1-4)]GlcNAc(b1-2)Man(a1-3)[Gal(b1-3)[Fuc(a1-4)]GlcNAc(b1-2)Man(a1-6)]Man(b1-4)GlcNAc(b1-4)[Fuc(a1-6)]GlcNAc
# Summary of the method: as §1
# [21] = biological target: Gal(b1-3)[Fuc(a1-4)]GlcNAc(b1-3)Gal(b1-3)[Fuc(a1-4)]GlcNAc
# Summary of the method: as §1
# [22] = biological target: Gal(b1-3)[Fuc(a1-4)]GlcNAc(b1-3)Gal(b1-4)[Fuc(a1-3)]GlcNAc
# Summary of the method: as §1
# [23] = biological target: Gal(b1-3)[Fuc(a1-4)]GlcNAc(b1-6)GalNAc
# Summary of the method: as §1
# [24] = biological target: Gal(b1-3)[GlcNAc(b1-6)]GalNAc
# Summary of the method: as §1
# [25] = biological target: Gal(b1-3)[Neu5Ac(a2-6)]GalNAc
# Summary of the method: as §1
# [26] = biological target: Gal(b1-3)[Neu5Ac(a2-6)]GlcNAc(b1-4)Gal(b1-4)Glc
# Summary of the method: as §1
# [27] = biological target: Gal(b1-3)[Neu5Ac(b2-6)]GalNAc
# Summary of the method: as §1
# Gal(b1-4)Gal = biological target: Gal(b1-4)Gal
# Summary of the method: as §1
# [28] = biological target: Gal(b1-4)GalNAc(a1-3)[Fuc(a1-2)]Gal(b1-4)GlcNAc
# Summary of the method: as §1
# [29] = biological target: Gal(b1-4)GalNAc(b1-3)[Fuc(a1-2)]Gal(b1-4)GlcNAc
# Summary of the method: as §1
# Gal(b1-4)Glc = biological target: Gal(b1-4)Glc
# Summary of the method: as §1
# Gal(b1-4)Glc6S = biological target: Gal(b1-4)Glc6S
# Summary of the method: as §1
# Gal(b1-4)GlcNAc = biological target: Gal(b1-4)GlcNAc
# Summary of the method: as §1
# [30] = biological target: Gal(b1-4)GlcNAc(a1-6)Gal(b1-4)GlcNAc
# Summary of the method: as §1
# Gal(b1-4)GlcNAc(b1-2)Man = biological target: Gal(b1-4)GlcNAc(b1-2)Man
# Summary of the method: as §1
# [31] = biological target: Gal(b1-4)GlcNAc(b1-2)Man(a1-3)Man(b1-4)GlcNAc(b1-4)GlcNAc
# Summary of the method: as §1
binder,measurement,setting,value
B1,glycan array binding signal (z-score),[1],0.135
same,glycan array binding signal (z-score),[2],-0.307
same,glycan array binding signal (z-score),[3],-0.686
same,glycan array binding signal (z-score),[4],-0.677
same,glycan array binding signal (z-score),[5],0.816
same,glycan array binding signal (z-score),[6],-0.193
same,glycan array binding signal (z-score),[7],-0.807
same,glycan array binding signal (z-score),[8],0.55
same,glycan array binding signal (z-score),[9],0.308
same,glycan array binding signal (z-score),[10],0.462
same,glycan array binding signal (z-score),[11],-0.461
same,glycan array binding signal (z-score),[12],1.62
same,glycan array binding signal (z-score),[13],-0.413
same,glycan array binding signal (z-score),[14],0.187
same,glycan array binding signal (z-score),[15],-0.145
same,glycan array binding signal (z-score),[16],0.173
same,glycan array binding signal (z-score),[17],-1.36
same,glycan array binding signal (z-score),Gal(b1-3)GlcNAc6S,-0.5
same,glycan array binding signal (z-score),[18],0.297
same,glycan array binding signal (z-score),[19],0.975
same,glycan array binding signal (z-score),[20],-0.282
same,glycan array binding signal (z-score),[21],-0.772
same,glycan array binding signal (z-score),[22],0.195
same,glycan array binding signal (z-score),[23],-0.839
same,glycan array binding signal (z-score),[24],-0.157
same,glycan array binding signal (z-score),[25],-0.273
same,glycan array binding signal (z-score),[26],-0.546
same,glycan array binding signal (z-score),[27],0.653
same,glycan array binding signal (z-score),Gal(b1-4)Gal,-0.819
same,glycan array binding signal (z-score),[28],-0.449
same,glycan array binding signal (z-score),[29],-0.217
same,glycan array binding signal (z-score),Gal(b1-4)Glc,-0.247
same,glycan array binding signal (z-score),Gal(b1-4)Glc6S,0.392
same,glycan array binding signal (z-score),Gal(b1-4)GlcNAc,-0.525
same,glycan array binding signal (z-score),[30],-0.112
same,glycan array binding signal (z-score),Gal(b1-4)GlcNAc(b1-2)Man,-0.212
same,glycan array binding signal (z-score),[31],-0.439

# Reprinted at random: 3 records from the list, in no set order.
binder,measurement,setting,value
B1,glycan array binding signal (z-score),Gal(b1-4)GlcNAc(b1-2)Man,-0.212
same,glycan array binding signal (z-score),[5],0.816
same,glycan array binding signal (z-score),[13],-0.413
